Measurements published in publication PMC12593631.
These are yes or no findings as the source states them, for the method shown. Binding seen in cells or lysates may run through a third protein. Some results given as binding are weak or reduced against the parent protein; the word gives no strength.

Amino acid sequences for entries named in this document (tags omitted).
UniProt P05412: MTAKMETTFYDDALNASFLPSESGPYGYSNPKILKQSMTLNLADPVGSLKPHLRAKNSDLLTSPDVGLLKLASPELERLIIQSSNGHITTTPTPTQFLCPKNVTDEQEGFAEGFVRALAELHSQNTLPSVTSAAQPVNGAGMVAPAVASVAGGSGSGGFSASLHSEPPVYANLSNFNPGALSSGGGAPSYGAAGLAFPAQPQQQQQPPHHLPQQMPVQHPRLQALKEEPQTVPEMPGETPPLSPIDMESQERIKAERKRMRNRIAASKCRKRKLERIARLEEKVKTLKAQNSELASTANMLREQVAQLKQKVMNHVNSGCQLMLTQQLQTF
UniProt P11309: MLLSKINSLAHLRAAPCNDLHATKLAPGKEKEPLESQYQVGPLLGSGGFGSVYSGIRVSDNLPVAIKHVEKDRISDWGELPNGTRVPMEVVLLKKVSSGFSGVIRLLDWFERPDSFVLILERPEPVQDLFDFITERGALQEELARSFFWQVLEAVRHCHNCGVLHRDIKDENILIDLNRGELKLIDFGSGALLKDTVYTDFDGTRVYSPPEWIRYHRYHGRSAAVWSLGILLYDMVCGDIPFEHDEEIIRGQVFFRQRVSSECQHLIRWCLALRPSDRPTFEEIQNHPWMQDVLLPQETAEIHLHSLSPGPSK

Biological target: T1, Basic leucine zipper ATF-like transcription factor (BATF) (human (endogenous in HGC-27 and KATO III)) (UniProt Q16520)
T1 sequence: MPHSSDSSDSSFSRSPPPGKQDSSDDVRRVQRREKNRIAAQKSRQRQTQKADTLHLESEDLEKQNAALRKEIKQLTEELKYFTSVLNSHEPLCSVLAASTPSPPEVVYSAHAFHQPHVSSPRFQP
Test: co-IP; cell lysate (IP lysis buffer, sonicated) incubated overnight at 4 °C with anti-BATF antibody or nonspecific IgG, protein A, four washes; immunoblot with anti-PIM1 or anti-JUN

| Substance | binding |
| --- | --- |
| Jun proto-oncogene, AP-1 transcription factor subunit (JUN) (from UniProt P05412 1-331) | binds |
| proto-oncogene serine/threonine-protein kinase 1 (PIM1) (from UniProt P11309 1-313) (enzyme) | binds |
